PMC5667882
No constants are given. Whether binding was seen depends on the method and setting. Binding seen in cells or lysates may run through a third protein. Some entries that bind do so weakly or less than the wild type. For some of these results: Sequences can lack the tags named with a protein. One block for each molecule: values may come before it.

Amino acid sequences for entries named in this document (tags omitted).
UniProt Q62053: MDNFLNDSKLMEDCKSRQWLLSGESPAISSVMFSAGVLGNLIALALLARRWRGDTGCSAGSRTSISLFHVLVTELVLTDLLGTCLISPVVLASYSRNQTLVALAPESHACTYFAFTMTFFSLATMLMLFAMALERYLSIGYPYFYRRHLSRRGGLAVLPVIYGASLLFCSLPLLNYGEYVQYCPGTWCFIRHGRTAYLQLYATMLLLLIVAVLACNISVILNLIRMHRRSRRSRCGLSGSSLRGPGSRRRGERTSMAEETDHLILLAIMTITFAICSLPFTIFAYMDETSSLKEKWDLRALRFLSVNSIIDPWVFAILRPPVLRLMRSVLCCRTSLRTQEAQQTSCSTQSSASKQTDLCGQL
UniProt P97926: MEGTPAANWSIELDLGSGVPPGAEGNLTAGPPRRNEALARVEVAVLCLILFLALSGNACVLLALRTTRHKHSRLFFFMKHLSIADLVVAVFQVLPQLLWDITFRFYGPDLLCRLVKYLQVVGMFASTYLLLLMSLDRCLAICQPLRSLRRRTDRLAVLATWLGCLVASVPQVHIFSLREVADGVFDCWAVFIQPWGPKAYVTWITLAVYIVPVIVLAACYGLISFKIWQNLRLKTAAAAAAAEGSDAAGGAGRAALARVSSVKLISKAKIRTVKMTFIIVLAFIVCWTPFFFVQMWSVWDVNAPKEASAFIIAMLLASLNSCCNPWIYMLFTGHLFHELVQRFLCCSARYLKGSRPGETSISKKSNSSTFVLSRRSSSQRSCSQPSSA

How the values were obtained:
[1] = target: T1, calcitonin (CT) receptor (CTR) (mouse (endogenous in OV3121)) (UniProt Q60755); assay: co-IP; 30 ug OV3121 membrane proteins co-immunoprecipitated with 1 ug anti-EP2 or anti-CTR antibody, Western blotting with anti-CTR or anti-EP2 antibody, respectively; sample without Co-IP as negative control
T1 sequence: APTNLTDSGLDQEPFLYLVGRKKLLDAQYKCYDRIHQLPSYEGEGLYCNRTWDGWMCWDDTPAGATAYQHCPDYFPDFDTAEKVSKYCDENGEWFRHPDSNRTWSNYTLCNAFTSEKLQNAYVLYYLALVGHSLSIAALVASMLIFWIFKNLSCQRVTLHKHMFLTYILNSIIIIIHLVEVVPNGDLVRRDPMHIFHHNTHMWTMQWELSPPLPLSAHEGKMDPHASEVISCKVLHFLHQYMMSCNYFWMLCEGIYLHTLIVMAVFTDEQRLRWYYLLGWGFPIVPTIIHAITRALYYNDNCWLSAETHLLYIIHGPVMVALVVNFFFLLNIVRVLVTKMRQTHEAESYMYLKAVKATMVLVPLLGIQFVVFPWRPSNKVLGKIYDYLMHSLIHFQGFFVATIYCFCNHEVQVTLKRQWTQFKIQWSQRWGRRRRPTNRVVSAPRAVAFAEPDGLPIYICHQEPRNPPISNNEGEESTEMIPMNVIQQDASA

[2] = target: T2, CTR-fused YFP (CTR-YFP) (mouse (ORF amplified from OV3121 cells)) (UniProt Q60755); assay: FRET or BRET; FRET by confocal laser microscopy in living HEK293MSR cells transfected with 1 ug of each CFP- and YFP-fusion vector, imaged the following day
T2 sequence: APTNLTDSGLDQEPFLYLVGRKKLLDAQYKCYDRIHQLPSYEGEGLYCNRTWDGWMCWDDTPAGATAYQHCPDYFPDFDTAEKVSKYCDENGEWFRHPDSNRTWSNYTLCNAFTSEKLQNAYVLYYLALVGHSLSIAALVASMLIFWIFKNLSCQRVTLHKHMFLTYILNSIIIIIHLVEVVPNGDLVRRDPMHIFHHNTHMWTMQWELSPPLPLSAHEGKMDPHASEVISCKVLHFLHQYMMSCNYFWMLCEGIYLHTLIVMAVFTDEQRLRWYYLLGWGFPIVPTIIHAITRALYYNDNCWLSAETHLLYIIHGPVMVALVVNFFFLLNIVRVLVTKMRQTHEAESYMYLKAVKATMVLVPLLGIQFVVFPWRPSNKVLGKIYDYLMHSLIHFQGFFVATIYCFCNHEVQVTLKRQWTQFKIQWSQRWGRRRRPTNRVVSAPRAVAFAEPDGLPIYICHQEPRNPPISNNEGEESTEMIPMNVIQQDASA

[3] = target: prostaglandin E2 (PGE2) receptor 2 (EP2) (mouse (endogenous in OV3121)) (UniProt Q62053); assay: co-IP; 30 ug OV3121 membrane proteins co-immunoprecipitated with 1 ug anti-EP2 or anti-CTR antibody, Western blotting with anti-CTR or anti-EP2 antibody, respectively; sample without Co-IP as negative control
[4] = target: EP2-fused CFP (EP2-CFP) (mouse (ORF amplified from OV3121 cells)) (UniProt Q62053); assay: FRET or BRET; FRET by confocal laser microscopy in living HEK293MSR cells transfected with 1 ug of each CFP- and YFP-fusion vector, imaged the following day

binding [1]: binds
Molecule: prostaglandin E2 (PGE2) receptor 2 (EP2) (from UniProt Q62053 1-362)

binding [2]: no binding
Molecule: OXTR-fused CFP (OXTR-CFP) (from UniProt P97926 1-388) (receptor)

binding [3]: binds
B1: calcitonin (CT) receptor (CTR) (receptor, UniProt Q60755 42-533)
chain: APTNLTDSGLDQEPFLYLVGRKKLLDAQYKCYDRIHQLPSYEGEGLYCNRTWDGWMCWDDTPAGATAYQHCPDYFPDFDTAEKVSKYCDENGEWFRHPDSNRTWSNYTLCNAFTSEKLQNAYVLYYLALVGHSLSIAALVASMLIFWIFKNLSCQRVTLHKHMFLTYILNSIIIIIHLVEVVPNGDLVRRDPMHIFHHNTHMWTMQWELSPPLPLSAHEGKMDPHASEVISCKVLHFLHQYMMSCNYFWMLCEGIYLHTLIVMAVFTDEQRLRWYYLLGWGFPIVPTIIHAITRALYYNDNCWLSAETHLLYIIHGPVMVALVVNFFFLLNIVRVLVTKMRQTHEAESYMYLKAVKATMVLVPLLGIQFVVFPWRPSNKVLGKIYDYLMHSLIHFQGFFVATIYCFCNHEVQVTLKRQWTQFKIQWSQRWGRRRRPTNRVVSAPRAVAFAEPDGLPIYICHQEPRNPPISNNEGEESTEMIPMNVIQQDASA

binding [4]: binds
B2: CTR-fused YFP (CTR-YFP) (receptor, UniProt Q60755 42-533)
chain: APTNLTDSGLDQEPFLYLVGRKKLLDAQYKCYDRIHQLPSYEGEGLYCNRTWDGWMCWDDTPAGATAYQHCPDYFPDFDTAEKVSKYCDENGEWFRHPDSNRTWSNYTLCNAFTSEKLQNAYVLYYLALVGHSLSIAALVASMLIFWIFKNLSCQRVTLHKHMFLTYILNSIIIIIHLVEVVPNGDLVRRDPMHIFHHNTHMWTMQWELSPPLPLSAHEGKMDPHASEVISCKVLHFLHQYMMSCNYFWMLCEGIYLHTLIVMAVFTDEQRLRWYYLLGWGFPIVPTIIHAITRALYYNDNCWLSAETHLLYIIHGPVMVALVVNFFFLLNIVRVLVTKMRQTHEAESYMYLKAVKATMVLVPLLGIQFVVFPWRPSNKVLGKIYDYLMHSLIHFQGFFVATIYCFCNHEVQVTLKRQWTQFKIQWSQRWGRRRRPTNRVVSAPRAVAFAEPDGLPIYICHQEPRNPPISNNEGEESTEMIPMNVIQQDASA
